Assay results reported in the supplement of paper PMC9233669.
This sample is rich in variants without activity.

How the values were obtained:
biotinyl-Ile-oxazolone = test: self-aminoacylation, catalytic enhancement (BIO) (fold over background); higher = more active; k-Seq, kA / k0A0; sequences stand for … in GGGAAUGGAUCCACAUCUACGAAUUC…UUCACUGCAGACUUGACGAAGCUG
Outline: (§1)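 Mutagenized RNA pools (0.43 μM; 21-nt variable region) were treated with 2–1250 μM of each biotinyl-aminoacyl-oxazolone. Conditions were 50 μL HEPES/NaCl/KCl/MgCl2/CaCl2 buffer, 5% acetonitrile, pH 6.9–7.0, room temperature, 90 minutes. Catalytic enhancement, the median kA relative to the uncatalyzed rate, was derived from streptavidin capture, qPCR and Illumina sequencing.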

biotinyl-Phe-oxazolone = test: self-aminoacylation, catalytic enhancement (BFO) (fold over background); higher = more active; k-Seq, kA / k0A0; sequences stand for … in GGGAAUGGAUCCACAUCUACGAAUUC…UUCACUGCAGACUUGACGAAGCUG
Outline: as §1

biotinyl-Met-oxazolone = test: self-aminoacylation, catalytic enhancement (BMO) (fold over background); higher = more active; k-Seq, kA / k0A0; sequences stand for … in GGGAAUGGAUCCACAUCUACGAAUUC…UUCACUGCAGACUUGACGAAGCUG
Outline: as §1

biotinyl-Val-oxazolone = test: self-aminoacylation, catalytic enhancement (BVO) (fold over background); higher = more active; k-Seq, kA / k0A0; sequences stand for … in GGGAAUGGAUCCACAUCUACGAAUUC…UUCACUGCAGACUUGACGAAGCUG
Outline: as §1

biotinyl-Trp-oxazolone = test: self-aminoacylation, catalytic enhancement (BWO) (fold over background); higher = more active; k-Seq, kA / k0A0; sequences stand for … in GGGAAUGGAUCCACAUCUACGAAUUC…UUCACUGCAGACUUGACGAAGCUG
Outline: as §1

biotinyl-Leu-oxazolone = test: self-aminoacylation, catalytic enhancement (BLO) (fold over background); higher = more active; k-Seq, kA / k0A0; sequences stand for … in GGGAAUGGAUCCACAUCUACGAAUUC…UUCACUGCAGACUUGACGAAGCUG
Outline: as §1

Sequence | self-aminoacylation (biotinyl-Ile-oxazolone) | self-aminoacylation (biotinyl-Phe-oxazolone) | self-aminoacylation (biotinyl-Met-oxazolone) | self-aminoacylation (biotinyl-Val-oxazolone) | self-aminoacylation (biotinyl-Trp-oxazolone) | self-aminoacylation (biotinyl-Leu-oxazolone)
CCACACUGCAAGCAAUCUGUC [Fam1B.1 aminoacylation ribozyme variant] | 0.534 | 0.872 | 0.506 | 0.716 | 0.421 | 0.471
CCACACUGCAAGCAAUGGGUC [Fam1B.1 aminoacylation ribozyme variant] | 1.45 | 1.2 | 1.45 | 1.49 | 1.52 | 1.69
CCACACUGCAAUCAAUCGGUC [Fam1B.1 aminoacylation ribozyme variant] | 1.16 | 1.17 | 0.823 | 0.892 | 0.838 | 0.887
CCACACUGCAUGCAAUCGGUC [Fam1B.1 aminoacylation ribozyme variant] | 0.875 | 0.714 | 0.803 | 0.857 | 0.659 | 0.507
CCACACUUAAAGCAAACGGUC [Fam1B.1 aminoacylation ribozyme variant] | 0.685 | 0.924 | 0.502 | 0.765 | 0.578 | 0.616
CCACACUUCAAACAAUCAGUC [Fam1B.1 aminoacylation ribozyme variant] | 0.947 | 42.2 | 0.771 | 1.06 | 12.4 | 1.16
CCACACUUCAAACAAUGGGUC [Fam1B.1 aminoacylation ribozyme variant] | 0.736 | 0.682 | 0.562 | 0.753 | 0.761 | 0.687
CCACACUUCAACCAAUAGGUC [Fam1B.1 aminoacylation ribozyme variant] | 0.791 | 0.931 | 0.61 | 0.672 | 0.497 | 0.611
CCACACUUCAACCAAUUGGUC [Fam1B.1 aminoacylation ribozyme variant] | 0.845 | 1.5 | 0.846 | 0.808 | 1.05 | 0.765
CCACACUUCAAGAAAACGGUC [Fam1B.1 aminoacylation ribozyme variant] | 0.572 | 0.665 | 0.647 | 0.671 | 0.32 | 0.531
CCACACUUCAAGAAAUCGAUC [Fam1B.1 aminoacylation ribozyme variant] | 0.481 | 1.02 | 0.402 | 0.656 | 0.335 | 0.382
CCACACUUCAAGAAAUGGGUC [Fam1B.1 aminoacylation ribozyme variant] | 0.863 | 0.579 | 0.779 | 0.831 | 0.812 | 0.729
CCACACUUCAAGCAAACCGUC [Fam1B.1 aminoacylation ribozyme variant] | 0.783 | 0.872 | 0.526 | 0.845 | 0.715 | 0.639
CCACACUUCAAGCAACAGGUC [Fam1B.1 aminoacylation ribozyme variant] | 0.669 | 0.739 | 0.626 | 0.87 | 0.576 | 0.667
CCACACUUCAAGCAAUAGAUC [Fam1B.1 aminoacylation ribozyme variant] | 0.616 | 1.22 | 0.578 | 0.687 | 0.55 | 0.499
CCACACUUCAAGCAAUAGGGC [Fam1B.1 aminoacylation ribozyme variant] | 0.98 | 0.832 | 0.627 | 1.08 | 0.711 | 0.774
CCACACUUCAAGCAAUAUGUC [Fam1B.1 aminoacylation ribozyme variant] | 0.552 | 0.828 | 0.429 | 0.722 | 0.555 | 0.501
CCACACUUCAAGCAAUCCUUC [Fam1B.1 aminoacylation ribozyme variant] | 0.89 | 1.19 | 0.649 | 0.899 | 0.533 | 0.44
CCACACUUCAAGCAAUCGAUG [Fam1B.1 aminoacylation ribozyme variant] | 0.571 | 1.01 | 0.534 | 0.665 | 0.746 | 0.598
CCACACUUCAAGCAAUCGCAC [Fam1B.1 aminoacylation ribozyme variant] | 0.76 | 0.785 | 0.814 | 0.889 | 0.672 | 0.465
CCACACUUCAAGCAAUCGCUU [Fam1B.1 aminoacylation ribozyme variant] | 1.83 | 0.996 | 2.06 | 1.77 | 1.93 | 2.09
CCACACUUCAAGCAAUCUGUG [Fam1B.1 aminoacylation ribozyme variant] | 0.514 | 0.656 | 0.547 | 0.635 | 0.383 | 0.657
CCACACUUCAAGCAAUGGCUC [Fam1B.1 aminoacylation ribozyme variant] | 1.26 | 0.411 | 1.22 | 1.1 | 1.09 | 0.847
CCACACUUCAAGCAAUUCGUC [Fam1B.1 aminoacylation ribozyme variant] | 0.917 | 0.998 | 0.684 | 1.05 | 0.733 | 0.589
CCACACUUCAAGCAAUUGGUA [Fam1B.1 aminoacylation ribozyme variant] | 1.25 | 1.24 | 0.699 | 0.964 | 0.594 | 0.901
